Laboratory results taken from patent EP0617893B1, “Molluscicides” (SHELL INTE[…] […] B.V., priority 1993, dated 1994).

Test system: Deroceras reticulatum
Test: Bait palatability monitoring
Format: in vivo
Design: key: maximum palatability rating of +++
Settings: baits of Example 1; scale with maximum +++

| SMILES | Bait Palatability |
| --- | --- |
| O=[N+]([O-])C=C1NCCN1Cc1cc(C(F)(F)F)no1 [compound 4] | +++ |
| O=[N+]([O-])C=C1NCCN1Cc1cc(Cl)no1 [Compound No. 1] | +++ |
| Cc1cc(CN2CCNC2=C[N+](=O)[O-])on1 [compound 3] | +++ |

No dose or concentration is given here for some results.
